# Measured values: patent publication US20160271251A1, “RADIOLUMINESCENT COMPOUND FOR RADIOTHERAPY AND DEEP PHOTODYNAMIC THERAPY AND DEVICE FOR DEEP PHOTODYNAMIC THERAPY” (SYNCHROTRON SOLEIL, priority 2013, published 2016)
# At least one compound was matched to its structure with a doubt left.
# Assay: UV-visible absorption spectrum of photosensitiser
# Assay type: physicochemical
# Settings: DMSO medium; c=4 μM
# Description: For the acquisition of these spectra, the two molecules are mixed in the same aqueous solvent. The energy of the X-ray radiation is generally comprised between 1 and 20 keV and selected so as to be higher than an absorption threshold of the radioluminescent molecule, so that the radioluminescent molecule absorbs the X-ray radiation of energy and emits a luminescence radiation in the visible domain.
smiles,measurement,value
Cc1cc(O)c2c(=O)c3c(O)cc(O)c4c5c(O)cc(O)c6c(=O)c7c(O)cc(C)c8c1c2c(c34)c(c78)c65 [Hypericin],absorption peak,around 600 nm
